Source: article PMC6609562, “A new split‐luciferase complementation assay identifies pentachlorophenol as an inhibitor of apoptosome formation” (FEBS Open Bio, 2019)
No constants are given. Whether binding was seen depends on the method and setting. For some assays here: Binding seen in cells or lysates may run through a third protein. Some entries that bind do so weakly or less than the wild type. For some assays here: Tags and fused reporters may be left off the sequences shown.

Key:
[1] = target: Purified recombinant Apaf-1 (rApaf-1) (human) (UniProt O14727); assay: SEC; as a3, purified rApaf-1 with cytochrome c and dATP, plus 1 mM PCP (pentachlorophenol); gel filtration, dot blot with an anti-Apaf-1 antibody; both purified
[2] = target: T1, Cluc-Apaf1 (Apaf-1 XL fused to the C-terminal fragment of firefly luciferase) (human), O14727; assay: SEC; 1 mL S-100 extract (untransfected HEK 293, or Nluc-Apaf1 and Cluc-Apaf1 extracts mixed 1:1) incubated for 15 min in the presence and absence of dATP/Cc, Sephacryl 300 HR column; fractions concentrated and immunoblotted for Apaf-1; conditions: remark: other sources report otherwise
T1 chain: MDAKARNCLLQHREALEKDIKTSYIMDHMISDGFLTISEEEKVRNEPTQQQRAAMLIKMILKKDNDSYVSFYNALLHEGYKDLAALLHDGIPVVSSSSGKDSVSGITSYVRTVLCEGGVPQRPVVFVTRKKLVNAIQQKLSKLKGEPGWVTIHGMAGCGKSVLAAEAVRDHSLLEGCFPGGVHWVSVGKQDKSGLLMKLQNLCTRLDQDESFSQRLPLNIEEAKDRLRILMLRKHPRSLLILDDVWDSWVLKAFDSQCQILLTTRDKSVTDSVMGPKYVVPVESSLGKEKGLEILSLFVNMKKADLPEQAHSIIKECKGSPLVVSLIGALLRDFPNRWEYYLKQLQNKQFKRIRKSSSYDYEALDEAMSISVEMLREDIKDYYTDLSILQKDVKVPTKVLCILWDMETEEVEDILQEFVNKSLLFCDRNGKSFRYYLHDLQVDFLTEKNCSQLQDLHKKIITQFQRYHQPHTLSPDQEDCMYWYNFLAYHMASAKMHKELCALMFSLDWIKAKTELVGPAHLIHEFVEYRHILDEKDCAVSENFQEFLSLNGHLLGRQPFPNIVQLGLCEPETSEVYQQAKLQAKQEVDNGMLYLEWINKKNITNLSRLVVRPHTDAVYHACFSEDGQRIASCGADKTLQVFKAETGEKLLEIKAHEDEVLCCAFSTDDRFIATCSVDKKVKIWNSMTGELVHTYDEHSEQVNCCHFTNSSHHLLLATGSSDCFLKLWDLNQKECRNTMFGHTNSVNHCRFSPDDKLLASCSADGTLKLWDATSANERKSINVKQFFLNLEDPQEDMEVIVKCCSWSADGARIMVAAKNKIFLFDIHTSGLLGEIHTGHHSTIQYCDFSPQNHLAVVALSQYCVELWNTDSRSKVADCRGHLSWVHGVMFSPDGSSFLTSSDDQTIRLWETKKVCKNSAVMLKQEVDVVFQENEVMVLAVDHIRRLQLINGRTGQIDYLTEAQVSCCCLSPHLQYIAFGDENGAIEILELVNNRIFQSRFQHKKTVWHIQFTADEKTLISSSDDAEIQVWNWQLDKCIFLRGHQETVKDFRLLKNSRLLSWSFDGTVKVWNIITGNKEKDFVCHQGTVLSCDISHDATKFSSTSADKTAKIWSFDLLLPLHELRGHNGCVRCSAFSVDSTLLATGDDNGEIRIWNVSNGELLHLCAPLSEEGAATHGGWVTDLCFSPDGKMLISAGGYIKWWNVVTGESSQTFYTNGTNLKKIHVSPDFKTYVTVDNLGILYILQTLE

[3] = target: T1, Cluc-Apaf1 (Apaf-1 XL fused to the …); assay: split reporter; split firefly luciferase complementation; ice-cold S-100 extracts of Nluc-Apaf1 and Cluc-Apaf1 cells mixed 1:1, with and without 1.6 μM cytochrome c and 1 mM dATP (cytochrome c titrated in one experiment); One-Glo Luciferase Assay System, light read at 25 °C over 15 min; conditions: remark: other sources report otherwise
[4] = target: T2, Apoptotic Protease-Activating Factor-1 (Apaf-1), endogenous in HEK 293 S-100 extract (human (endogenous in HEK 293)), O14727; assay: SEC; 1 mL S-100 extract (untransfected HEK 293, or Nluc-Apaf1 and Cluc-Apaf1 extracts mixed 1:1) incubated for 15 min in the presence and absence of dATP/Cc, Sephacryl 300 HR column; fractions concentrated and immunoblotted for Apaf-1; conditions: remark: other sources report otherwise
T2 chain: T1 chain

[5] = target: T3, Purified recombinant Apaf-1 (rApaf-1) (human), O14727; assay: SEC; purified rApaf-1 with cytochrome c and dATP; gel filtration, fractions analysed by dot blot with an anti-Apaf-1 antibody; markers thyroglobulin (669 kDa) and aldolase (158 kDa); both purified; conditions: remark: other sources report otherwise
T3 chain: T1 chain

Purified recombinant Apaf-1 (rApaf-1) (from UniProt O14727 1-1248)
binding [1]: no binding (condition: with 1 mM PCP)

B1: Nluc-Apaf1 (Apaf-1 XL fused to the N-terminal fragment of firefly luciferase), O14727-1 1-1248 (natural protein)
chain: T1 chain
binding [2]: binds
binding [3]: binds

B2: Apoptotic Protease-Activating Factor-1 (Apaf-1), endogenous in HEK 293 S-100 extract, O14727 1-1248 (protein)
chain: T1 chain
binding [4]: binds

B3: Purified recombinant Apaf-1 (rApaf-1), O14727 1-1248 (protein)
chain: T1 chain
binding [5]: binds
